Experimental data from patent US20230010886A1 (SUZHOU PUHE BIOPHARMA CO., LTD., priority 2019, published 2023).
Some results were stated once for a whole list of compounds, not compound by compound. At least one structure is not confirmed: it was looked up by name or label, or the drawing left a doubt.

Tests used:
[1] = system: NCI-H358 cells; assay: Lung cancer H-358 xenograft studies; assay type: in vivo, BALB/c nude mice; settings: oral 10 mg/kg or 30 mg/kg per day, once a day for 4 weeks, mice
[2] = system: Mai-Pa-ca-2 cells; assay: Pancreatic cancer Mia-Pa-Ca-2 xenograft studies; assay type: in vivo, BALB/c nude mice; settings: once a day for 21 days, mice
Method: Mai-Pa-ca-2 cells were expanded in culture, harvested and injected subcutaneously into 6-8 weeks old female BALB/c nude mice (5×10^6 cell/each mouse, supplemented with Matrigel (1:1) for tumor development, n=9 per group). Subsequent administration of a compound by oral gavage started when the mean tumor size reached approximately 150-200 mm^3. During the treatment (once a day for 21 days), the tumor volumes were measured using a caliper. Statistical analysis of difference in tumor volume among the groups were evaluated using a one-way ANOVA. Vehicle alone was the negative control.

Compound | tumor growth inhibition [1] | tumor growth inhibition ([2]; oral 30 mg/kg or 60 mg/kg) | tumor growth inhibition ([2]; oral 30 mg/kg)
C[C@@H]1OCC2(CCN(c3ncc(Sc4cccc(Cl)c4Cl)[nH]c3=O)CC2)[C@@H]1N | more than 70% | more than 70% | 
C[C@@H]1OCC2(CCN(c3ncc(Sc4ccnc(N)c4Cl)[nH]c3=O)CC2)[C@@H]1N [SYB-020083] | more than 70% |  | more than 70%
